Reference: PubChem BioAssay AID1053118 (Broad Institute, 2014)
The inconclusive results got no clear call from the source; some entries with a clear call stand among them for comparison. Activity calls are given as the source filed them.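 Rule for the calls: active = fitted half-maximal concentration for ATP signal loss at most twice the top valid dose; inconclusive = flat curve between -70 and -30%, or an invalid fit; inactive = flat within ±30%, wrong direction, or potency past limit.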

Assay: viability loss in HepG2 hepatoma cells – cell-based, cherry-picks, set 5, cytotoxicity control, dose response (AID 1053118);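 note: 0% = neutral control wells and -100% = mitoxantrone positive control wells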
Conditions: ATP luminescence, 72 h; at 26 µM (top of the series)

SMILES | activity change, negative = cytotoxicity
O=C(Nc1cc(Sc2nc3ccccc3s2)cc([N+](=O)[O-])c1)c1ccccc1F | inconclusive: 8.58%
Nc1c(C(=O)NCc2ccco2)nnn1Cc1ccccc1 | inactive: -25.9%
Cc1ccn2cc(-c3ccc(NC(=O)c4ccco4)cc3)nc2c1 | inconclusive: 67.1%
Fc1cnc(N2CCN(c3ccccc3)CC2)nc1N1CCN(c2ccccc2)CC1 | inconclusive: -30.5%
